These results are taken from doi:10.1101/513135.

No constants are given. Whether binding was seen depends on the method and setting. In cells and extracts the contact can be indirect. These calls come from enrichment with a bait or labelling near it, and not all partners need be listed. Where a sequence is shown, tags or fusion partners need not be part of it.

The target in the experiment is T1, Mdh1-GFP (S. cerevisiae) (UniProt P17505).
T1 sequence: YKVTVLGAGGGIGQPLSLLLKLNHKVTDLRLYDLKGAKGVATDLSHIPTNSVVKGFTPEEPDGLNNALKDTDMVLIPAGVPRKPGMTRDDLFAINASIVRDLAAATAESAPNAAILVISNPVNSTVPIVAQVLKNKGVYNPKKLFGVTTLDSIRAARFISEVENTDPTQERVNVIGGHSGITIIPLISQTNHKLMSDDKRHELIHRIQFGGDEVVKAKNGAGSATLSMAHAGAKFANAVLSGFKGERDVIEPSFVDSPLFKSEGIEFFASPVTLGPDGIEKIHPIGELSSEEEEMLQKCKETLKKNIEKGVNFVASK
The experiment in a line: affinity purification with mass spectrometry.

B1: Idh1 (protein, UniProt P28834 12-360)
chain: ATAAQAERTLPKKYGGRFTVTLIPGDGVGKEITDSVRTIFEAENIPIDWETINIKQTDHKEGVYEAVESLKRNKIGLKGLWHTPADQTGHGSLNVALRKQLDIYANVALFKSLKGVKTRIPDIDLIVIRENTEGEFSGLEHESVPGVVESLKVMTRPKTERIARFAFDFAKKYNRKSVTAVHKANIMKLGDGLFRNIITEIGQKEYPDIDVSSIIVDNASMQAVAKPHQFDVLVTPSMYGTILGNIGAALIGGPGLVAGANFGRDYAVFEPGSRHVGLDIKGQNVANPTAMILSSTLMLNHLGLNEYATRISKAVHETIAEGKHTTRDIGGSSSTTDFTNEIINKLSTM
In the case of B1, the binding result was “binds”.
